Test results reported in patent publication US5532231A, “Antibacterial agent” (priority 1994, dated 1996).

Experiment: Adherence to polystyrene in the presence of E. coli ESS
Settings: 4 μg TA, 20 μg Focusin; E. coli ESS in NB, 37° C.

Compound | time over which the agent was released from / still bound to polystyrene
CCCC1OC(=O)C(C)CC(C)CCCCC(=O)CCCC(CC)CCCC(COC)CCC(O)C(O)CC(O)CNC1=O (centres unmarked) [Focusin] | > 88 h
CCCC1OC(=O)C(C)CC(C)CCCCC(=O)CCCC(CC)C=CC=C(COC)CCC(O)C(O)CC(O)CNC1=O (centres unmarked) [TA, reference compound] | 40 h
